No constants are given. Whether binding was seen depends on the method and setting. Some entries that bind do so weakly or less than the wild type.
Legend:
[1] = molecular target: T1, GcdC1, biotin carrier subunit of glutaconyl-CoA decarboxylase (Gcd) from Clostridium symbiosum (Clostridium symbiosum (endogenous in C. symbiosum DSM 934)) (UniProt B7TVP4); assay: native MS; LILBID-MS, soft detection mode (14 mJ laser power); 3-7 uM glutaraldehyde-fixed and unconcentrated Gcd complex in 50 mM Tris-HCl pH 7.0, 0.05% DDM, 200 mM NaCl; both purified
T1 sequence (chain, biotin covalently bound (C-terminal region)): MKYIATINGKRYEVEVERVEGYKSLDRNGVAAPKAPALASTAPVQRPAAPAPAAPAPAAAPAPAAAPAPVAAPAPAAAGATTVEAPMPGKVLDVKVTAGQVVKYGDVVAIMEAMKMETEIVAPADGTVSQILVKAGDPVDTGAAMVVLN

[2] = molecular target: T2, GcdC2, biotin carrier subunit of glutaconyl-CoA decarboxylase (Gcd) from Clostridium symbiosum (Clostridium symbiosum (endogenous in C. symbiosum DSM 934)) (UniProt B7TVP3); assay: as above
T2 sequence (chain, biotin covalently bound (C-terminal region)): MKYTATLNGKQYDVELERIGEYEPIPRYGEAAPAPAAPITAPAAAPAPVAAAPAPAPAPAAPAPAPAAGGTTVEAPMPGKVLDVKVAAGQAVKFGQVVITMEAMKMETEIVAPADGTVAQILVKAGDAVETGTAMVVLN

B1: GcdB, subunit of glutaconyl-CoA decarboxylase (Gcd) from Clostridium symbiosum (enzyme, UniProt B7TVP5 1-379, looked up)
chain: MNFFEIMGEMLAQSGFTALTWKNLVMFAISFVLLYMAIKKQYEPLLLLPIAFGMFLANLPLADLMKESEPWYTQGVLRIMYGGVKSSLFPCLIFLCVGAMTDFGPLIANPISLLLGAAAQFGIYIAFMLANATGLFTVGEAAAIGIIGGADGPTAIYIANNLAPDLVAPIAVAAYSYMALIPMIQPPIMKLLTTKKERAIVMKQLRKVSKVEKVVFPVFVVLFCSLLLPSVAPLLGMLMLGNLFRESGVVERLSDTAQNALCNIVTIMLGTTVGATANGDIFLRVQTIAIIAMGLMAFCFSTVGGVLLGKLLCVVTGGKINPLIGSAGVSAVPMAARVSQTVGSKENPTNFLLMHAMGPNVAGVIGSAVAAGFFMLIFK
notes: GcdB, membrane-spanning subunit (11 putative transmembrane helices) of glutaconyl-CoA decarboxylase, Clostridium symbiosum, 35 kDa (39 kDa in the introduction)
**Q.** B1 was tested. Which binding [1] did it give?
**A.** binds

**Q.** And the binding [2]?
**A.** binds

From PMC7145394, “Molecular and Low-Resolution Structural Characterization of the Na^+-Translocating Glutaconyl-CoA Decarboxylase From Clostridium symbiosum” (Frontiers in Microbiology, 2020)
